The test system of data set [1] is thrombin. Description: competition with a labelled probe. The conditions noted are these: decreased binding versus G15D4d/5d/6d, TBB; purified native protein; protein details: purchased from Enzyme Research Lab; label: 32P; single-stranded DNA; variant of G15D.
Data set [2] deals with thrombin. The data set is described as follows: EMSA. The conditions noted are these: only a fraction bound; 1 uM aptamer, 10 uM thrombin in TBB; purified native protein; protein details: purchased from Enzyme Research Lab; label: 32P; single-stranded DNA; variant of G15D.

A weaker result is weaker than the reference pair of the same experiment.

On to CCAACCAGGTTGGTGTGGTTGG [G15D7d], for which the binding result in data set [1] and in data set [2] was “binds more weakly” throughout.

The record behind these values is patent publication US20050100919.
